# Results of single-concentration screens

Data taken from ChEMBL document CHEMBL3988442, “University of Dundee, Small-Polar-MMV Screening Library” (2021).

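Whole-parasite assay of Trypanosoma brucei over 72 hours; the read-out is not stated. Concentration: 30 µM. The record gives no direction; compounds that gave an IC50 in retests scored well above the rest, so higher reads as stronger inhibition. Values scatter widely below zero; nearly all retest evidence comes from the higher of the two concentrations used. About 64,000 compounds were tested under these conditions; 1.5% (about 940) showed 50% or more at least once.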

Values are the deposited “Percent Effect”, in %.
The record does not define 0% and 100%; most values in the screen are far below 50% and negative numbers occur (in some assays of this library far below -100).
Compounds were drawn at random from those tested, without regard to their results.

{"compound": "Cc1cnccc1N1CCN(c2nccc(CCC(F)(F)F)n2)CC1", "effect": 20.65}
{"compound": "CCc1cnc(N2CCN(Cc3ccon3)CC2)s1", "effect": -40.43}
{"compound": "CS(=O)(=O)NC1CCN(C(=O)CCC2CCCO2)CC1", "stereo": "centres undefined", "effect": -62.08}
{"compound": "c1ccc(Cc2nnc(CN3CCCC(Cn4cncn4)C3)o2)cc1", "stereo": "centres undefined", "effect": -1.053}
{"compound": "CCCc1cc(NCc2noc(COC)n2)n2nccc2n1", "effect": -39.03}
{"compound": "CNC(=O)N1CCC2(CC1)CN(C)c1ccc(F)cc12", "effect": -57.64}
{"compound": "C[C@@H]1CN(C(=O)c2nc3sccn3c2-c2ncc[nH]2)C[C@H](C)O1", "effect": -23.01}
{"compound": "CC(O)CN1CCN(C(=O)c2cc3ccccc3[nH]c2=O)CC1", "stereo": "centres undefined", "effect": 47.12}
{"compound": "Cc1ccc(N2CCN(C(=O)CCc3n[nH]c(C)n3)CC2=O)cc1", "effect": -53.64}
{"compound": "COCC(=O)NCCn1nc(-c2cc(C)oc2C)ccc1=O", "effect": -12.59}
{"compound": "N#Cc1ncn(CCC(=O)Nc2cc(Cl)ccc2Cl)n1", "effect": -39.56}
{"compound": "Cc1nn(C)c2c(NCCCn3cccn3)ncnc12", "effect": 28.09}
{"compound": "COc1cccc(C(=O)NS(=O)(=O)c2cc(Cl)sc2Cl)c1OC(F)F", "effect": 17.42}
{"compound": "NC(=O)c1cncc(N2CCN(Cc3cccc4nsnc34)CC2)n1", "effect": -36.64}
{"compound": "CCN(Cc1nonc1C)C(=O)c1ccc(Br)o1", "effect": 1.752}
{"compound": "CC(C)COCC1CN(C(=O)c2cscn2)Cc2ncn(C)c21.O=C(O)C(F)(F)F", "stereo": "centres undefined", "effect": -83.42}
{"compound": "O=C(O)C(F)(F)F.[H][C@]12CCN(C(=O)c3ccc4[nH]ccc4c3)C[C@@]1([H])OCCN(CC1CC1)C2", "effect": -42.71}
{"compound": "Cc1nn(C)c(N(C)C)c1CNCCNS(C)(=O)=O", "effect": -11.64}
{"compound": "CCOCC(=O)NCCc1nc(C2CC2)cc(C(F)(F)F)n1", "effect": -10.07}
{"compound": "O=C(CC1CCC1)N1CCCC(CO)(CC2CC2)C1", "stereo": "centres undefined", "effect": -0.7927}
{"compound": "COc1cccc(C(C(=O)O)N(C)Cc2ccc(C)o2)c1", "stereo": "centres undefined", "effect": 1.304}
{"compound": "CCc1nnc2n1CCN(C(=O)c1ccc(C)c(S(N)(=O)=O)c1)C2", "effect": 18.37}
{"compound": "[H][C@]12CN(c3ccccn3)CCN1C[C@H](CO)[C@H]2c1ccccc1", "effect": -22.21}
{"compound": "Cc1ncsc1CN(C)C(=O)C(CC(C)C)N1CCCCC1=O", "stereo": "centres undefined", "effect": -6.389}
{"compound": "Cc1cc2nc(SCC(=O)N3CCCC3)n(Cc3ccco3)c(O)c-2n1", "effect": 0.3326}
{"compound": "Cc1cc(C(=O)N2CCOC(c3nc(C(C)C)n[nH]3)C2)c(C)s1", "stereo": "centres undefined", "effect": 17.14}
{"compound": "CCCNC(=O)CNc1ccc(C(=O)N2CCCCC2C)cc1C", "stereo": "centres undefined", "effect": -12.38}
{"compound": "COCCOc1ccnc(-c2noc([C@@H]3CCCN3C(C)C)n2)c1", "effect": -7.989}
{"compound": "O=C(O)C(F)(F)F.c1cnc(N2CC3(CCN(CC4CCOC4)CC3)c3ccccc32)nc1", "stereo": "centres undefined", "effect": -50.98}
{"compound": "O=C(NCc1nncn1C1CC1)c1ccc(F)c(COCC2CC2)c1", "effect": -22.81}
{"compound": "COc1ccc(C(CNC(=O)Nc2cn[nH]c2)N2CCOCC2)cc1", "stereo": "centres undefined", "effect": -2.047}
{"compound": "O=C(O)C(F)(F)F.[H][C@@]12CCCO[C@]1([H])[C@@H](Oc1ccccn1)CN2C(=O)N(C)C", "effect": 14.76}
{"compound": "CNC(=O)NCC(CO)Cc1ccccc1OC(F)(F)F", "stereo": "centres undefined", "effect": -41.21}
{"compound": "COCCO[C@H]1CCN(c2cc(OC)ncn2)[C@H]1Cc1cccnc1.O=C(O)C(F)(F)F", "effect": -34.1}
{"compound": "CCN(CC)C(=O)C1CCN(c2ccc(Cl)cc2C#N)CC1", "effect": -5.722}
{"compound": "O=C(C1CCC2(CCN(c3ncccn3)CC2)CO1)N1CCCC1", "stereo": "centres undefined", "effect": -10.88}
{"compound": "O=C(O)C(F)(F)F.c1ccc(CN2Cc3nccn3CC(Cn3cccn3)C2)nc1", "stereo": "centres undefined", "effect": -81.23}
{"compound": "Cn1cc(C2COC3(CCN(C(=O)c4ccn(C)n4)CC3)C2)cn1", "stereo": "centres undefined", "effect": -365.6}
{"compound": "CN(CC(=O)N1CCCC1c1noc(C2CC2)n1)S(C)(=O)=O", "stereo": "centres undefined", "effect": -14.25}